# PubChem BioAssay AID445 (National Center for Advancing Translational Sciences (NCATS), 2006)
# The other results are listed elsewhere or left out. These are further read-outs of the screen, such as a control signal, another cell line or another target. No call is given for them. The list favours compounds with an active or inconclusive main result. The note in brackets gives the kind of curve behind each potency; many fits are weak.
# Assay: IkB Signaling
# Settings: ABC-DLBCL IkBa-CBG/CBR dual luciferase ratio (green luciferase fused to IkBa over red control in OCI-Ly3 lymphoma cells), 4 h; measured here: control luc red channel unless noted
# Summary of the method: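 In this assay, an IκBα–CBG68 fusion accumulates when IKK-driven degradation is blocked; native CBR normalizes for cell number. OCI-Ly3 cells were treated 4 h with compound and doxycycline, then green and red light read after Chroma-Glo addition.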
row,Compound,AC50
1,O=C(CSc1nnc(-c2ccccc2)o1)N1CCCc2ccccc21,"25.1 µM [falling, single point]"
2,O=C(CCc1ccc(S(=O)(=O)N2CCOCC2)cc1)OCc1nc2ccccc2s1,"7.94 µM [falling, full curve]"
3,Cc1ccc(C)c(N2CCN(C(=O)Cn3nc(Cc4cccnc4)c4ccccc4c3=O)CC2)c1,"20 µM [falling, single point]"
4,CCOC(=O)N1CCc2c(sc3c2c(=O)n(-c2ccc(Cl)cc2)c(=O)n3CC(=O)Nc2ccccc2)C1,"12.6 µM [falling, partial curve]"
5,CCC(=O)Oc1cccc(C(=O)Nc2ccc(-c3nnc(-c4ccco4)o3)cc2)c1,"7.94 µM [falling, full curve, poor fit]"
6,COc1ccccc1-n1c(CNC(=O)c2ccccc2)nnc1SCC(=O)Nc1nnc(C)s1,"3.98 µM [falling, full curve]"
7,O=C(c1ccccc1)c1ccc2nc(Nc3ccccc3Cl)c3nncn3c2c1,"20 µM [rising, partial curve]"
8,CCOC(=O)c1c(C)oc2nc(C)nc(NCc3cccc(OC)c3)c12,"39.8 µM [falling, single point]"
9,CCOC(=O)c1cc(OC(=O)c2ccc(OC)c(OC)c2)n(-c2ccccc2)n1,"39.8 µM [falling, single point]"
10,COC(=O)c1[nH]c2cc(OC)ccc2c1NC(=O)CCN1CCN(c2cccc(C)c2C)CC1,"15.8 µM [falling, partial curve]"
11,CCn1c(=O)cc(SCC(=O)N2CCN(c3cc(C)ccc3C)CC2)c2ccccc21,"15.8 µM [falling, partial curve]"
12,Cc1nc2cccnc2n1-c1cccc(C(=O)NCCc2ccc(Cl)cc2)c1,"25.1 µM [falling, partial curve]"
13,O=C(Cc1cccs1)NCCn1ccc2ccccc21,"398 nM [falling, full curve] [measured here: IkB-luc green channel]"
14,O=C(CN1CCOc2ccccc21)N1CCC(Cc2ccccc2)CC1,"15.8 µM [falling, partial curve]"
15,CCC(=O)N1CCCc2cc(S(=O)(=O)Nc3ccc(C)c(C)c3)ccc21,"25.1 µM [falling, partial curve, poor fit]"
16,O=C(Nc1ccc2nc(SCC(=O)N3CCCc4ccccc43)sc2c1)c1ccc(F)cc1,"7.94 µM [falling, partial curve]"
17,CCCCN(CC)C(=O)Cn1c(=O)n(-c2ccc(OCC)cc2)c(=O)c2c3c(sc21)CCCC3,"25.1 µM [falling, partial curve]"
18,Cc1c(C(=O)Nc2ccc(Br)cc2F)sc2ncnc(N(C)C3CCCCC3)c12,"39.8 µM [falling, single point]"
19,CC(C)(C)c1ccc(NC(=O)CSc2nnc3scc(-c4ccccc4)n23)cc1,"10 µM [falling, partial curve]"
20,CCOC(=O)c1cnc2c(OC)cccc2c1Nc1cccc(O)c1,"31.6 µM [falling, partial curve]"

row,Compound,AC50
1,COc1ccc(C(=O)Cn2nnc(-c3ccccc3NC(=O)C3CC3)n2)cc1,"31.6 µM [falling, single point]"
2,Cc1cc(C)c2c(C)c(C(=O)N3CCC(c4nc5ccccc5s4)CC3)oc2c1,"10 µM [falling, partial curve]"
3,Cc1cc(-c2nnc3n2N=C(c2ccc(-c4ccccc4)cc2)CS3)n[nH]1,"20 µM [falling, partial curve]"
4,COCCCNC(=O)c1cc(-c2cccnc2)nc2ccc(S(=O)(=O)N3CCC(C)CC3)cc12,"1 µM [rising, full curve, poor fit]"
5,CN1C(=O)C2(c3ccccc31)N(c1cccc(F)c1)C(=O)CS2(=O)=O (centres undefined),"39.8 µM [falling, single point]"
6,Clc1ccccc1CNc1nc2ccccc2c2nc(-c3cccnc3)nn12,"7.94 µM [rising, single point]"
7,COc1ccc(Cl)cc1NC(=O)c1c(NCc2sccc2C)sc2c1CCCC2,"39.8 µM [rising, single point] [measured here: IkB-luc green channel]"
8,COc1ccc(N2C(=O)CC(Cc3ccccc3)C2=O)cc1 (centres undefined),"25.1 µM [falling, partial curve]"
9,COc1ccc(OC)c(CNS(=O)(=O)c2c(C(=O)N3CCCCCC3)c(C)n(C)c2C)c1,"15.8 µM [falling, partial curve, poor fit]"
10,O=S(=O)(c1ccc(Br)cc1)c1nc(-c2cccs2)oc1SCc1ccccc1F,"0.0398 µM [falling, full curve, poor fit]"
11,CCc1ccc(N(CC)C(=O)Cn2c(=O)oc3ccccc32)cc1,"0.316 µM [falling, partial curve]"
12,COc1cccc2cc(C(=O)NCCc3c(C)[nH]c4ccc(Br)cc34)c(=O)oc12,"7.94 µM [falling, full curve]"
13,CCC(C)OC(=O)C1=C(C)NC(=O)CC1c1ccccc1OC (centres undefined),"7.94 µM [falling, partial curve]"
14,CCOC(=O)c1cc2c(=O)n3ccccc3nc2n(CC(C)C)c1=NC(=O)c1cc2ccccc2o1,"25.1 µM [falling, partial curve, poor fit]"
15,O=C(CN1C(=O)CC(c2ccccc2)Sc2ccccc21)Nc1cccc(Cl)c1 (centres undefined),"0.126 µM [falling, full curve]"
16,CCN(C(=O)Cn1c(=O)oc2cc(Cl)ccc21)c1cccc(C(F)(F)F)c1,"20 µM [falling, partial curve, poor fit]"
17,Cc1ccc(CCNC(=O)C2CCN(c3nnc(-n4cccc4CNc4ccc(C)cc4)s3)CC2)cc1,"0.126 µM [falling, full curve]"
18,COc1ccc(/C=C/C(=O)Nc2nc3n(n2)C(c2ccccc2)C=C(c2ccccc2)N3)cc1 (centres undefined),"7.94 µM [falling, partial curve]"
19,CN(Cc1ccccc1)C(=O)CSc1nc2ccccc2n1Cc1ccccc1F,"15.8 µM [falling, partial curve]"

# Filtered by structure: the entries above containing bromine
row,Compound,AC50
18,Cc1c(C(=O)Nc2ccc(Br)cc2F)sc2ncnc(N(C)C3CCCCC3)c12,"39.8 µM [falling, single point]"
10,O=S(=O)(c1ccc(Br)cc1)c1nc(-c2cccs2)oc1SCc1ccccc1F,"0.0398 µM [falling, full curve, poor fit]"
12,COc1cccc2cc(C(=O)NCCc3c(C)[nH]c4ccc(Br)cc34)c(=O)oc12,"7.94 µM [falling, full curve]"
